Experimental data published in PMC7808939.
No constants are given. Whether binding was seen depends on the method and setting. For some of these results: Binding seen in cells or lysates may run through a third protein. Some binding calls cover weakened binding; strength is not graded here. For some of these results: Where a sequence is shown, tags or fusion partners need not be part of it.

The chains behind the UniProt entries cited, without tags or fusion partners. Where a name states a change or a piece, a line headed by the entry shows the natural chain unless it says otherwise.
UniProt Q9WTX6: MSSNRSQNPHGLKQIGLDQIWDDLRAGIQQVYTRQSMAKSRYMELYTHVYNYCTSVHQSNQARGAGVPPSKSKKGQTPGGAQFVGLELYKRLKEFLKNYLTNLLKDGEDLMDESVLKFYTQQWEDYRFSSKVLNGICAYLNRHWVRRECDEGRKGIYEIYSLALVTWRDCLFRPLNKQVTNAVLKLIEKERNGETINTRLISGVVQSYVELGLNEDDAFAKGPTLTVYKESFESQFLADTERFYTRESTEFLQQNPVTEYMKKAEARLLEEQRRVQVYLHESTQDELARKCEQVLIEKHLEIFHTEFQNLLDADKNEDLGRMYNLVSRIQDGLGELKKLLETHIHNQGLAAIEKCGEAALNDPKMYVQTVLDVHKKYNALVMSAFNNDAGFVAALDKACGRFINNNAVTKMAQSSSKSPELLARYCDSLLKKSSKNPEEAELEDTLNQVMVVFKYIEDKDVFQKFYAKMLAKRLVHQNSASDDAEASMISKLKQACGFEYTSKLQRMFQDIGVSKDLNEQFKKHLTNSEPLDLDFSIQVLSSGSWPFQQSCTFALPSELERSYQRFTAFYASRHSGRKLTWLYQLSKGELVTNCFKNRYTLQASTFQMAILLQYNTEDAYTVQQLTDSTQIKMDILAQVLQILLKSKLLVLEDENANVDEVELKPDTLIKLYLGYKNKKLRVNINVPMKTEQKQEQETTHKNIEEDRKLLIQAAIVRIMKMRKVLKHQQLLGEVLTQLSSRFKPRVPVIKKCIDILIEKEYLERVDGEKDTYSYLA
UniProt P30280: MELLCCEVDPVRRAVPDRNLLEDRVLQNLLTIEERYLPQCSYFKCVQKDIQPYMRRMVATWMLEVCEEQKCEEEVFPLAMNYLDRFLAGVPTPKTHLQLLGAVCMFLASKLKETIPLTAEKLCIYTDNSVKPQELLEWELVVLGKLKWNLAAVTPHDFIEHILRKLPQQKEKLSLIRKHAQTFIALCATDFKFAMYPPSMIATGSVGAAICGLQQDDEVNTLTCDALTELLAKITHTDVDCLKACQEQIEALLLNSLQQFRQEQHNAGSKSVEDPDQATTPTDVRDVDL
UniProt P25322: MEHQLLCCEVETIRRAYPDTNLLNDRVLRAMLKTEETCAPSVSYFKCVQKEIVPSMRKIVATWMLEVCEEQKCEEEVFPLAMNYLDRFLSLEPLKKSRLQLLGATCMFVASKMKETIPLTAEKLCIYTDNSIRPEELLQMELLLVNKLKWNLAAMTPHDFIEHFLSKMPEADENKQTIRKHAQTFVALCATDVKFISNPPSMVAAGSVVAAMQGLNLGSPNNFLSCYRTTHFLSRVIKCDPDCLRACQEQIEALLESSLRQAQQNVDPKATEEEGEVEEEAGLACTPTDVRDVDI
UniProt P30281: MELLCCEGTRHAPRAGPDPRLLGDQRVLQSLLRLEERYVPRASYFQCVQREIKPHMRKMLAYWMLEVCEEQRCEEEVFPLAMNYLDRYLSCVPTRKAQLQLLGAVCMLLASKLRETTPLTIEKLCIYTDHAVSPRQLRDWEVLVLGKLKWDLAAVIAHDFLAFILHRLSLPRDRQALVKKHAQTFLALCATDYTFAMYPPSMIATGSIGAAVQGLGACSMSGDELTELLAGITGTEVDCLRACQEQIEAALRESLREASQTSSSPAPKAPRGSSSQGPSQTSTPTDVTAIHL

Columns and labels:
Flag-Fbxl8 (NIH3T3) = target: T1, Flag-Fbxl8 (NIH3T3) (UniProt Q8CIG9); assay: co-IP; NIH3T3 cells transfected with Flag-Fbxl8, MG132 (20 μM) for 4 h; anti-Flag beads; blot for Cul1, Skp1, Rbx1
T1 sequence: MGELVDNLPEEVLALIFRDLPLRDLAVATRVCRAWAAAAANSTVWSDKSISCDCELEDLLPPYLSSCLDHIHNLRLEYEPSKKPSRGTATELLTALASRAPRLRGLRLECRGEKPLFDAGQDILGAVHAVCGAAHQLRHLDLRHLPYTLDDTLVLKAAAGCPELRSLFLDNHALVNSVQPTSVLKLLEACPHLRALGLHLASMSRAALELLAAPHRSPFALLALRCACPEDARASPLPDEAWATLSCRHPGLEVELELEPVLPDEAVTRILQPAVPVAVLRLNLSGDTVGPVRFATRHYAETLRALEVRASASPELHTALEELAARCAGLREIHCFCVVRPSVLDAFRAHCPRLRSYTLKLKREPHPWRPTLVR

[1] = target: T2, Flag-Fbxl8 (Sf9, purified) (UniProt Q8CIG9); assay: pull-down; in vitro binding: Flag-Fbxl8 or Flag-Fbxo4 purified on anti Flag beads from sf9, incubated 4 h with cyclin D3/CDK4 or cyclin D2/CDK4 purified from sf9; washed 5 times with Tween20 lysis buffer (50 mM HEPES pH 8.0, 150 mM NaCl, 0.1% Tween 20); western blot; both purified
T2 sequence: T1 sequence

[2] = target: T3, endogenous Fbxl8 (NIH3T3 cells) (mouse (endogenous in NIH3T3)) (UniProt Q8CIG9); assay: co-IP; endogenous proteins, NIH3T3 lysate, MG132 (20 μM) for 4 h; normal IgG or an antibody specific for Fbxl8; blot for cyclin D3, D2, D1
T3 sequence: T1 sequence

[3] = target: T4, endogenous Fbxl8 (Raji cells) (human (endogenous in Raji)) (UniProt Q96CD0); assay: co-IP; endogenous proteins, Raji Burkitt's lymphoma cells (Figs. S1D-E)
T4 sequence: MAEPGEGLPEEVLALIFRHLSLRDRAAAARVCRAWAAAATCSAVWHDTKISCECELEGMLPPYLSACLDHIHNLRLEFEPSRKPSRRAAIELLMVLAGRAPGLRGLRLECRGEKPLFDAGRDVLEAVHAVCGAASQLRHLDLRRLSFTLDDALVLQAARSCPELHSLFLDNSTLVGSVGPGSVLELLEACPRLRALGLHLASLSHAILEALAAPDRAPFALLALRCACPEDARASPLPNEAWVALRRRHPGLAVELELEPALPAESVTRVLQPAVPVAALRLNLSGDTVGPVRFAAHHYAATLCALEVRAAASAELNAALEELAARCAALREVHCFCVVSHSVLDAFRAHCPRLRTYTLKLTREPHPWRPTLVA

Q: How did the binding (Flag-Fbxl8 (NIH3T3)) turn out when “Cul1 (NIH3T3 cells) (from UniProt Q9WTX6 1-776)” was run?
A: binds

Q: “cyclin D2/CDK4 (Sf9, purified) (from UniProt P30280 1-289; P30285 1-303) (complex)” was tested. Which binding [1] did it give?
A: no binding

Q: Which binding [2] does the source give for “endogenous cyclin D1 (NIH3T3 cells) (from UniProt P25322 1-295)” here?
A: no binding

Q: With “endogenous cyclin D3 (Raji cells) (from UniProt P30281 1-292)” as the substance, how does the binding [3] read?
A: binds
